{"source": "patent US4186136A", "about": "“Novel benzothienyl amino (propyl and butyl) ketones, a method of preparation thereof and their application to therapeutics” (priority 1975, dated 1980)", "tested_on": "rat's isolated duodenum", "assay": "Spasmolytic activity on isolated duodenum contracted by barium chloride (Magnus)", "settings": "reference antagonist; barium chloride contraction, Tyrode, 38° C.; hydrochloride", "method": "The spasmolytic activity was studied on a rat's isolated duodenum maintained in a survival medium of an aerated Tyrode solution heated to 38° C. according to the technique of Magnus (Magnus R.-Archivs ges. Physiol., 1905, 180, 1-71).\nThe contracting agent used was barium chloride, the reference antogonist agent being papaverine hydrochloride (R). The average activity of the compounds of formula I (X) in comparison with that of the reference agent was expressed by calculating the ratio of the 50 efficient doses (ED 50) determined graphically on logarithmic paper: [formula]\nFor example: a substance having a relative activity expressed by the FIG. 2 presents an activity equal to twice that of papaverine hydrochloride.", "note": "“And” between values parts separate entries of the source, which are not always exact repeats. Equal values may be shown once. Where a name gives a salt, the structure may show the parent alone. At least one read-out could not be matched to a standard name with certainty."}
{"smiles": "COc1ccc(Cc2nccc3cc(OC)c(OC)cc23)cc1OC", "note": "[papaverine hydrochloride, reference compound]", "values": [{"measurement": "Spasmolytic activity ED 50 (R)", "value": "6.5 µg/mL and 4 µg/mL"}]}
